Drawing on PMC12733253, “NFE2 Truncation Mutants Protect Wild-Type NFE2 from ITCH-Dependent Degradation” (International Journal of Molecular Sciences, 2025), this text covers binding for three molecules.

Sequences of proteins named here, by UniProt entry; tags and fusion partners are left off. A change or cut given only in a name is not applied to a line headed by its entry. A line that says so, or that is headed by a name, gives the form on record, which may keep a tag or linker.
itchy E3 ubiquitin protein ligase (ITCH), wild type, MYC-tagged (Q96J02-2, form named): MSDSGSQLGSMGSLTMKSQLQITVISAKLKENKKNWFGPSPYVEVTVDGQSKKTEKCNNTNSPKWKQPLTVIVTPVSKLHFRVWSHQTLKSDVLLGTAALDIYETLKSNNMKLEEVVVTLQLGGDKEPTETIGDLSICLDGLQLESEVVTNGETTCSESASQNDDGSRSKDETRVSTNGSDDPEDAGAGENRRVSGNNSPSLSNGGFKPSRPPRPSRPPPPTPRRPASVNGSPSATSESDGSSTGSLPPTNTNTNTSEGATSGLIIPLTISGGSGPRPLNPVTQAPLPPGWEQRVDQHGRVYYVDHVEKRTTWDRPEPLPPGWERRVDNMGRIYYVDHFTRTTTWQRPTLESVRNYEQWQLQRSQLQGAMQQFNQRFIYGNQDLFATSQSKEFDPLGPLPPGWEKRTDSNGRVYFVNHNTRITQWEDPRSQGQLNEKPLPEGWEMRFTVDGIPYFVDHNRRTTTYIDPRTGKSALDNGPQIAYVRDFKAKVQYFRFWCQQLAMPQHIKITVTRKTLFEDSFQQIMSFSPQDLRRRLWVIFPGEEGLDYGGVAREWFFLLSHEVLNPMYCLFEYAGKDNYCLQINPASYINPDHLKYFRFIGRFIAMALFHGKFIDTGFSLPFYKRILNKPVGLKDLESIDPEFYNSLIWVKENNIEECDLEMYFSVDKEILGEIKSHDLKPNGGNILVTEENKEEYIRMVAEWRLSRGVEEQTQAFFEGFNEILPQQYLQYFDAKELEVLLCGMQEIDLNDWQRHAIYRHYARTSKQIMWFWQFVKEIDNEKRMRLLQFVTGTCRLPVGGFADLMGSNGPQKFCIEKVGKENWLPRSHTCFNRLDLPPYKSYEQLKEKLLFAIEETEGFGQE

Results are given in words; binding and its absence hold for the method and conditions named. In cells and extracts the contact can be indirect. Some entries that bind do so weakly or less than the wild type. Tags and fused reporters may be left off the sequences shown.

For experiment [1], the target named is T1, NFE2-Δ297-300, HA-tagged (human) (UniProt Q16621).
T1 sequence: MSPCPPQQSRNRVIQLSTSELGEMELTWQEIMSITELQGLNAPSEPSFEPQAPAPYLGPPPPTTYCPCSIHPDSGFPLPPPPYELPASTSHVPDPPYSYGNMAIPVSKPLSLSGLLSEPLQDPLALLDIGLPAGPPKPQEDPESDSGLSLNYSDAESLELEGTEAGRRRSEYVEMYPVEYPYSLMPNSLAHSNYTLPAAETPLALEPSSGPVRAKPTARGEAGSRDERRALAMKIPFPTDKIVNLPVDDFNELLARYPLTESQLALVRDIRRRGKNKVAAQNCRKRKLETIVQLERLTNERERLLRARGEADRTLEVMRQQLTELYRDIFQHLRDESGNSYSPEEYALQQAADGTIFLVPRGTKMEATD
The experiment in a line: co-IP; HEK-293T co-transfected with MYC-tagged ITCH and HA-tagged NFE2 construct, RIPA lysate 36 h after transfection; IP with anti-HA magnetic beads (Pierce HA-Tag Magnetic IP/Co-IP Kit); blots probed for NFE2 and MYC.

Experiment [2] addresses T2, wild-type nuclear factor erythroid 2 (NFE2), HA-tagged (human) (UniProt Q16621).
T2 sequence: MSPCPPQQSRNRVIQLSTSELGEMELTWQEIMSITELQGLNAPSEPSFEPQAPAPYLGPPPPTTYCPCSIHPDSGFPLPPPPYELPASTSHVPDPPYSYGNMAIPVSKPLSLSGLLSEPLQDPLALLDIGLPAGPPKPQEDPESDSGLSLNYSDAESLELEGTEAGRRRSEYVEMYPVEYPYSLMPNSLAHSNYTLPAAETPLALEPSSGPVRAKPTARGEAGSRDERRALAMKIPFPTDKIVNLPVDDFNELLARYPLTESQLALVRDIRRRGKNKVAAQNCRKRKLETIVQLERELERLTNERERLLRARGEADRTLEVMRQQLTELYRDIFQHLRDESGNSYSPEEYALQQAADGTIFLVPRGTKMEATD
The experiment is described as above.

For experiment [3], the target named is itchy E3 ubiquitin protein ligase (ITCH), wild type, MYC-tagged (UniProt Q96J02). Nature of the experiment: proximity ligation; HEK-293T co-transfected (PEI) with MYC-ITCH and NFE2 construct, fixed with 2% formalin, permeabilized with 0.2% Triton X-100; Duolink In Situ Red kit with antibodies marking NFE2 and ITCH; control: MYC-ITCH alone.
Experiment [4] has the same target. The experiment in a line: co-IP; HEK-293T co-transfected with MYC-tagged ITCH and HA-tagged NFE2 construct, RIPA lysate 36 h after transfection; IP with anti-MYC magnetic beads (Pierce Myc-Tag Magnetic IP/Co-IP Kit); blots probed for NFE2 and MYC.

Take “itchy E3 ubiquitin protein ligase (ITCH), wild type, MYC-tagged (from UniProt Q96J02-2 1-862) (enzyme)”: the binding result in experiment [1] and in experiment [2] was “binds” throughout.

B1: NFE2-Δ297-300, HA-tagged (protein, UniProt Q16621)
chain: T1 sequence
In the case of B1, the binding result in experiment [3] and in experiment [4] was “binds” throughout.

B2: wild-type nuclear factor erythroid 2 (NFE2), HA-tagged (natural protein, human, UniProt Q16621 1-373, looked up)
chain: T2 sequence
For B2, the binding result in experiment [3] and in experiment [4] was “binds” each time.
